From patent US20110166233A1, “COMPOUNDS FOR THE TREATMENT OF METABOLIC DISORDERS” (WELLSTAT THERAPEUTICS CORPORATION, priority 2006, published 2011)
At least one structure is not confirmed: it was looked up by name or label, or the drawing left a doubt.

Test system: db/db mice
Experiment: Antidiabetic effects in db/db mice, second experiment (comparison with rosiglitazone)
Format: in vivo
Details: male db/db mice, daily oral treatment, after 8 weeks; compound of the invention 150 mg/kg, rosiglitazone 20 mg/kg; compared to vehicle-treated controls

SMILES: CN(CCOc1ccc(CC2SC(=O)NC2=O)cc1)c1ccccn1 (centres unmarked) [rosiglitazone]
- blood glucose: significantly lower
- triglycerides: significantly lower
